Results published in US20210115154A1 (Chugai, published 2021).
No constants are given. Whether binding was seen depends on the method and setting. Binding can be weak; no strength is given.

Target: Human MASP-1 (CCP1-CCP2-SP S646A) (human)
Experiment: ELISA, antibody captured by goat anti-human IgG, 8 nM biotinylated antigen

Binder | binding
MAS0102dd (antibody, human IgG4 S228P, kappa, V domains shown, Rabbit/human chimeric antibody: rabbit variable regions recombined with F760G4 and kOMTC constant regions; also called anti-MASP-1 chimeric mAb MAS0102dd) VH: QSVEESGGRLVTPGTPLTLTCTVSGFSLSSYAMSWVRQAPGKGLEWIGIITNLDNTYYANWAKGRFTISKTSTTVDLKITSPTTEDTAAYLCARERIKRKYSYDDYGGWAFDPWGPGTLVTVSS VL: QVLTQTPSSVSGPVGGTVTINCQAIENIYRSLAWYQQKPGQPPKLLIYDTSDLASGVPSRFSGSGSGTEYTLTISGVQCDDAATYYCQSYYYSSVTYNAFGGGTKVEIKR | binds
MAS0114bb (antibody, human IgG4 S228P, kappa, V domains shown, Rabbit/human chimeric antibody: rabbit variable regions recombined with F760G4 and kOMTC constant regions; also called anti-MASP-1 chimeric mAb MAS0114bb) VH: QSVEESGGRLVTPGTPLTLTCTASGFDINNYAIHWVRQAPGEGLEWIGYIYARSGVTWYASWVKGRFTISKTSTTVDLKMTSLTTEDTATYFCARVLAGGGYANTGLSLWGPGTLVTVSS VL: DIVMTQTPSSVSAAVGGTVTIKCQASQNIGYSSAWYQQKPGQRPKLMIYGASTLASGVPSRFSGSGSGTEYTLTISGVQCDDAATYYCQSNYISSGSVDGTFGGGTKVEIKR | binds
MAS0141aa (antibody, human IgG4 S228P, kappa, V domains shown, Rabbit/human chimeric antibody: rabbit variable regions recombined with F760G4 and kOMTC constant regions; also called anti-MASP-1 chimeric mAb MAS0141aa) VH: QSVEESGGRLVTPGTPLTLTCTASGFSLINYYMTWVRQAPGKGLEWIGIINTDGGTYYASWAKGRFTISRTSTTVDLKMTSLTTEDTATYFCARGVFTGGWTGMRTNLWGPGTLVTVSS VL: DVVMTQTPASVEAAVGGTVTIKCQASEDIYILLAWYQQKPGQPPKLLIYAASNLESGVPSRFKGSGSGTEFTLTISDLECADAATYYCQCTYGSSSSNAFGGGTKVEIKR | binds
MAS0116aa (antibody, human IgG4 S228P, kappa, V domains shown, Rabbit/human chimeric antibody: rabbit variable regions recombined with F760G4 and kOMTC constant regions; also called anti-MASP-1 chimeric mAb MAS0116aa) VH: QSLEESGGRLVTPGTPLTLTCTASGFSLSSCYMSWVRQAPGEGLEWIGTIYTGSGATYYASWAKGRFTVSITSTTVDLKITSPTTEDTATYFCARAIYPGSSSSNLCAFDLWGPGTLVTVSS VL: QVLTQTPASVSAAVGGTVTINCQASQSVYDNNWLAWYQQKPGQPPKLLIYQASSLASGVPSRFKGSGSGAQFTLTISDLECDDAATYFCQGYYAGVLYSFGGGTKVEIKR | binds

Continued, values first:

binding | Binder
binds | MAS0177hh (antibody, human IgG4 S228P, kappa, V domains shown, Rabbit/human chimeric antibody: rabbit variable regions recombined with F760G4 and kOMTC constant regions; also called anti-MASP-1 chimeric mAb MAS0177hh) VH: QSVEESGGRLVTPGTPLTLTCTASGFSLSSAYMNWVRQAPGKGLEWIGIIYASGSTWYASWAKGRFTISKTSTTVDLKITSPTTEDTATYFCARDDYGTADLWGPGTLVTVSS VL: AVVLTQTASPVSAPVGGTVTIKCQASQSIGSSLAWYQQKPGQSPKLLIYGASTLVSGVSSRFSGSRSGTEFSLTISDLECADAATYYCQNYYLSSSSADRRTFGGGTKVEIKR
binds | MAS0154dd (antibody, human IgG4 S228P, kappa, V domains shown, Rabbit/human chimeric antibody: rabbit variable regions recombined with F760G4 and kOMTC constant regions; also called anti-MASP-1 chimeric mAb MAS0154dd) VH: QSVEESGGRLVTPGTPLTLTCTVSGFSLSNYNMGWVRQAPGEGLEYIGIISSQGDIYYATWAKGRFTISKTSTTVDLKITSPTTEDTATYFCARARHVGSAADSYFHLWGLGTLVTVSS VL: AVVLTQTASPVSAAVGGTVTINCQASEEIYRNLAWYQQKPGQRPKLLIYGASNLASGVPSRFSGSGSGTEYTLTISDLECADAATYYCQRYAWGKNSADGNTFGGGTKVEIKR
